For the experiment, the target named is T1, hPEPT1 (Homo sapiens, UniProt P46059).
T1 construct: endogenous in cells; host or cells: Caco-2 (human colon carcinoma, ATCC)
T1 sequence (P46059 1-708): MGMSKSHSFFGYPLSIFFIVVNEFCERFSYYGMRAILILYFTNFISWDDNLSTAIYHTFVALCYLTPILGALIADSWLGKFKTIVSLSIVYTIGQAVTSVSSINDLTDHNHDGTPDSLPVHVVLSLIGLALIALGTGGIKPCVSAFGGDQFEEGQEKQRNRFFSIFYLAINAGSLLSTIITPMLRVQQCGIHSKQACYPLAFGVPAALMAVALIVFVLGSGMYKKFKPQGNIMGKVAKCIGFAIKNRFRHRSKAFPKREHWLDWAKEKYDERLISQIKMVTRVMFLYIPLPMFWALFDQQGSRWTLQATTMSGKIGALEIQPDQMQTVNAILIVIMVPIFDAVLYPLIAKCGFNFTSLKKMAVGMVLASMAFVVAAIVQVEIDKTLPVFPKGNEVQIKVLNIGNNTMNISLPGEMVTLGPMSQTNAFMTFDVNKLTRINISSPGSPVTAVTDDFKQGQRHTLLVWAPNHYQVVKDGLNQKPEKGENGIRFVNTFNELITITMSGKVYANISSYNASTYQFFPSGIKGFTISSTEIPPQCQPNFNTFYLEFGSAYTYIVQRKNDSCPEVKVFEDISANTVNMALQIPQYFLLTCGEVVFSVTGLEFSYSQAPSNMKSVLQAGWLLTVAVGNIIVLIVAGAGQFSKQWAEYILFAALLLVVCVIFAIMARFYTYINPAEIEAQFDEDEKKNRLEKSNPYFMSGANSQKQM
The experiment in a line: [3H] Glycylsarcosine uptake and its inhibition in Caco-2 cells (affinity towards peptide transporter). The settings on record: Gly-Sar with drug (10 mM), Lineweaver-Burk. It is filed as cell-based. The source says:
Materials: [^3H] Glycylsarcosine (Gly-Sar; 4 Ci/mmol) was purchased from Moravek Biochemicals (Brea, Calif.) and [^14C] Mannitol (50 mCi/mmol) was supplied by Amersham (Piscataway, N.J.). Human colon carcinoma derived Caco-2 cells were obtained from American Type Culture Collection (ATCC, Rockville, Md.). The growth medium, Dulbecco's modified Eagle Medium was obtained from Life Technologies (Grand Island, N.Y.). […] Fetal bovine serum (FBS) was purchased from JRH Biosciences (Lenexa, Kans.). Culture flasks (75 cm^2 growth area), polyester Transwells® (pore size 0.4 Cm with diameter 6.5 mm) and polyester membranes (pore size 0.4 Cm) were procured from Costar (Bedford, Mass.). The buffer components and solvents were obtained from Fisher Scientific (St. Louis, Mo.). All the di-peptide esters of acyclovir were custom synthesized in our laboratory. […] Cell Culture: All cultures were maintained in humidified incubator at 37° C. with a 5% carbon dioxide in air atmosphere. […] The protein content of the cell suspension was determined by the method of Bradford using bovine serum albumin as the standard (BioRad protein estimation kit, Hercules, Calif.). […] The samples were stored at −80° C. until analyzed HPLC. […] The amount of protein in the cell lysate was measured by the BioRad protein estimation kit using bovine serum albumin as standard (BioRad Protein estimation Kit, Hercules, Calif.). […]
For orientation: Passage across Caco-2 layers is used to estimate intestinal permeability.

Regarding `CC1=C(C(=O)O)N2C(=O)[C@@H](NC(=O)[C@H](N)c3ccccc3)[C@H]2SC1` [Cephalexin, cephalexin, reference compound], the “Vmax of Gly-Sar uptake in presence of the drug” value turned out to be 0.101 ± 0.03 µmol/min/mg.

Values taken from US20090149482A1, “STEREOCHEMICALLY DEFINED DIPEPTIDE ESTERS OF ANTIVIRAL AGENTS FOR ENHANCED OCULAR TREATMENT” (priority 2001, published 2009).
